Measured values as given in PMC9985596.
Read-outs that look alike come from different tables or passages of the source. These are yes or no findings as the source states them, for the method shown. Binding seen in cells or lysates may run through a third protein. Some entries that bind do so weakly or less than the wild type. For part of these data: Tags and fused reporters may be left off the sequences shown.

Amino acid sequences for entries named in this document (tags omitted). Residues count along the entry.
UniProt P53396: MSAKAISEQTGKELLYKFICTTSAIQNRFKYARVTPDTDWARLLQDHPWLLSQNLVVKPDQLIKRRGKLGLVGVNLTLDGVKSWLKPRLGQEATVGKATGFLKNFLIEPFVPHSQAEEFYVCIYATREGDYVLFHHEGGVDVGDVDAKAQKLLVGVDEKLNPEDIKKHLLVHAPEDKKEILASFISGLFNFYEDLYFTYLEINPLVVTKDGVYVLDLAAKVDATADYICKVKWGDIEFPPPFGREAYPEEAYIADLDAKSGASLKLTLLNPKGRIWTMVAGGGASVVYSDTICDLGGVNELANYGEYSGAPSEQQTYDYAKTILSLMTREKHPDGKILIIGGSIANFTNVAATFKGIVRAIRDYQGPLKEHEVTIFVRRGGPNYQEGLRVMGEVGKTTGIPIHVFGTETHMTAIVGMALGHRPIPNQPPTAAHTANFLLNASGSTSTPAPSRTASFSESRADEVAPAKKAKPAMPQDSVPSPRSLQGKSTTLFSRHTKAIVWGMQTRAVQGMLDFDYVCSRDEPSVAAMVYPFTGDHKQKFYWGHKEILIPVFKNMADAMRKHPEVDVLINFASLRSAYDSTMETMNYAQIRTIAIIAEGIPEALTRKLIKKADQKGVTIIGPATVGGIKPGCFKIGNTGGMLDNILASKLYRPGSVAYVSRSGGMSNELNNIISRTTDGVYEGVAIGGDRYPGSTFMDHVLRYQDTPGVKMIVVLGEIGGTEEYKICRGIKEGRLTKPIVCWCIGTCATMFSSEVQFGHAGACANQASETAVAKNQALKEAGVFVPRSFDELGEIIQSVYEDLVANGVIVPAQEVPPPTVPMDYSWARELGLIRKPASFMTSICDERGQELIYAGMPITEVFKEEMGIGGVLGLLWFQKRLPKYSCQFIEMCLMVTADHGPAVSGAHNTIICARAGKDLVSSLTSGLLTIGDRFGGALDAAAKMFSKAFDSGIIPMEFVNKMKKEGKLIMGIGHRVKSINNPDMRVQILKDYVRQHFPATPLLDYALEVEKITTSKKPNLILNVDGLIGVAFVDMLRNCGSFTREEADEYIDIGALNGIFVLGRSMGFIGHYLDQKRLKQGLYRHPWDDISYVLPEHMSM
UniProt O43684: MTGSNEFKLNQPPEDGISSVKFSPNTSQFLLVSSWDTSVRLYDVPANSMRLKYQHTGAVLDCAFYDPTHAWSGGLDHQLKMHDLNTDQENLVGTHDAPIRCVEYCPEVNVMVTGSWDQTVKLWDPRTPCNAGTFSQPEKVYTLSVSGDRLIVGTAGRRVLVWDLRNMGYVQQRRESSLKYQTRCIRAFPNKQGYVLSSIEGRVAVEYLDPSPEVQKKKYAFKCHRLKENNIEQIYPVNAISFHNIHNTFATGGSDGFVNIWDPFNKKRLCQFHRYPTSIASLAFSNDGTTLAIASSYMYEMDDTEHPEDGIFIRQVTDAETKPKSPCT
UniProt P22314: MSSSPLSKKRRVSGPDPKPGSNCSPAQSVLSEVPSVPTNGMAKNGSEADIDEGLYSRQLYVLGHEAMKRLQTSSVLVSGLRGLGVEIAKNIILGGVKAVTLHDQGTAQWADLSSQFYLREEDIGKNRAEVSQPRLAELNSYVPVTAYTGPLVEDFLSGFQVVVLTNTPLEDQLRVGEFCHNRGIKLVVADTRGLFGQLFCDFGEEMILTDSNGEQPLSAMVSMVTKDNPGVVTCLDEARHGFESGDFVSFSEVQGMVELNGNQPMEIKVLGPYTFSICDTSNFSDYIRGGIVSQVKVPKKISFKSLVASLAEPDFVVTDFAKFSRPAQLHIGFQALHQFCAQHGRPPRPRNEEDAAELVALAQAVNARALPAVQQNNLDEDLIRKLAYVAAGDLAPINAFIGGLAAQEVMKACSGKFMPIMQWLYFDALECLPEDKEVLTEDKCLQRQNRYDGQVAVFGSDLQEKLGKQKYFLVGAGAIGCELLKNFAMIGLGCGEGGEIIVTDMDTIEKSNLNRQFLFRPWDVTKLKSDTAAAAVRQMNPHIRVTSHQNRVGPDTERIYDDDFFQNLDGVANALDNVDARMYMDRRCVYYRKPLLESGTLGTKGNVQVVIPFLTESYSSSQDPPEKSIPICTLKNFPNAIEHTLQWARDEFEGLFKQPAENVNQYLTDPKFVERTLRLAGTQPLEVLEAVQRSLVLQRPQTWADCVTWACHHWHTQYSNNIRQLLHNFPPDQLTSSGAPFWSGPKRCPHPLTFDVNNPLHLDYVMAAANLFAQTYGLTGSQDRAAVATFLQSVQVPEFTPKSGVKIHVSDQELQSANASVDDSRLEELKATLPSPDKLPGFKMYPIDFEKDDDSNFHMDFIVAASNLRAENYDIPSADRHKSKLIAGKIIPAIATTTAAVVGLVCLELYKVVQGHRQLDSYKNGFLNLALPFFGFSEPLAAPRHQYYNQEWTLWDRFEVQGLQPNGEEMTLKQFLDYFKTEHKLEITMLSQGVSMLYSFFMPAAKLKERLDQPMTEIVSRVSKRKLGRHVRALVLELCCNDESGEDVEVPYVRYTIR
UniProt Q9NYG5: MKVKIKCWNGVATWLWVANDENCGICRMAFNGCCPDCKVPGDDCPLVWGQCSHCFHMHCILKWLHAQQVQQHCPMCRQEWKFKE
UniProt Q07021, residues 74-282: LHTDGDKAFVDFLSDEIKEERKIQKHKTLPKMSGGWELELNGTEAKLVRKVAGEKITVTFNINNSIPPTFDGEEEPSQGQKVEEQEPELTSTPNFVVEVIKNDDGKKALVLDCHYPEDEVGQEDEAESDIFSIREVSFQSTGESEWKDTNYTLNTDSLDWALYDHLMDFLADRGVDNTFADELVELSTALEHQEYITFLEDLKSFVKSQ
UniProt Q9BRT9: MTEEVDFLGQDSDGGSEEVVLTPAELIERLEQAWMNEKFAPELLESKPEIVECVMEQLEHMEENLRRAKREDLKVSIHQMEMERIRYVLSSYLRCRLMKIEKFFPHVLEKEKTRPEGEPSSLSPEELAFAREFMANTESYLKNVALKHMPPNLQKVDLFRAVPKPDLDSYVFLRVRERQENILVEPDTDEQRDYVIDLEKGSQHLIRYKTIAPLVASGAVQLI

T1: FLAG-tagged RECQ4 wild type (human) (UniProt O94761)
T1 sequence: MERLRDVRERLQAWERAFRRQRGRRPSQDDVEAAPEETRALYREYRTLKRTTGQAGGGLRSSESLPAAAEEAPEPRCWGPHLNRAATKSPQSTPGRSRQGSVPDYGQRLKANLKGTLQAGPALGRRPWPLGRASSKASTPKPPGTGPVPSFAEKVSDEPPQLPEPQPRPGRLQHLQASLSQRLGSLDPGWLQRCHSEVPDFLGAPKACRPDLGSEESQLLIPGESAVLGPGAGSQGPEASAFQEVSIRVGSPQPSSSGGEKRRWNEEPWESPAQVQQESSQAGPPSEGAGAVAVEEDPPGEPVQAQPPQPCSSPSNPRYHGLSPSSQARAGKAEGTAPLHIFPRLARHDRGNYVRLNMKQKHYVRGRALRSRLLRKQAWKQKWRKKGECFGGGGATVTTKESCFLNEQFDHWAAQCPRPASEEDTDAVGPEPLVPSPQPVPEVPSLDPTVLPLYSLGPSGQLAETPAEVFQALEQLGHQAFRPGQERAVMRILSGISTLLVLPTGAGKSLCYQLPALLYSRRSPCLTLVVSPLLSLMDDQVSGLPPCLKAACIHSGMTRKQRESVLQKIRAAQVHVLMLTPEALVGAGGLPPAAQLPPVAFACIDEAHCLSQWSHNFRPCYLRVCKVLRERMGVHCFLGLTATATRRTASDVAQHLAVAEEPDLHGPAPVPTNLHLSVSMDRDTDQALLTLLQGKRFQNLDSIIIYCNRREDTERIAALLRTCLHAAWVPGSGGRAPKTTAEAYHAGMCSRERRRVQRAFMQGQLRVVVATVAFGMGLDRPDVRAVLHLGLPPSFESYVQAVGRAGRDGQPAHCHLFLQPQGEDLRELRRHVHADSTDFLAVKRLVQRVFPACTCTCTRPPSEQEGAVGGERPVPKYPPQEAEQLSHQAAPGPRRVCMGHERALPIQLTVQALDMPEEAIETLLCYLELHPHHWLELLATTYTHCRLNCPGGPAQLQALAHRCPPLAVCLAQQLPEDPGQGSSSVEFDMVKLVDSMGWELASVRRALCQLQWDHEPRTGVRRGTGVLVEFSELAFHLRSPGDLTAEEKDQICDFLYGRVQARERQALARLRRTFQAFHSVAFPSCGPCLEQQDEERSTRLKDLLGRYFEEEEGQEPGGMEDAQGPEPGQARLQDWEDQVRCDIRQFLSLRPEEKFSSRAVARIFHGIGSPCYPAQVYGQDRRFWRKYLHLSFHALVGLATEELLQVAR

T2: FLAG-tagged RECQ4 D1093X mutant (human) (UniProt O94761)
T2 sequence: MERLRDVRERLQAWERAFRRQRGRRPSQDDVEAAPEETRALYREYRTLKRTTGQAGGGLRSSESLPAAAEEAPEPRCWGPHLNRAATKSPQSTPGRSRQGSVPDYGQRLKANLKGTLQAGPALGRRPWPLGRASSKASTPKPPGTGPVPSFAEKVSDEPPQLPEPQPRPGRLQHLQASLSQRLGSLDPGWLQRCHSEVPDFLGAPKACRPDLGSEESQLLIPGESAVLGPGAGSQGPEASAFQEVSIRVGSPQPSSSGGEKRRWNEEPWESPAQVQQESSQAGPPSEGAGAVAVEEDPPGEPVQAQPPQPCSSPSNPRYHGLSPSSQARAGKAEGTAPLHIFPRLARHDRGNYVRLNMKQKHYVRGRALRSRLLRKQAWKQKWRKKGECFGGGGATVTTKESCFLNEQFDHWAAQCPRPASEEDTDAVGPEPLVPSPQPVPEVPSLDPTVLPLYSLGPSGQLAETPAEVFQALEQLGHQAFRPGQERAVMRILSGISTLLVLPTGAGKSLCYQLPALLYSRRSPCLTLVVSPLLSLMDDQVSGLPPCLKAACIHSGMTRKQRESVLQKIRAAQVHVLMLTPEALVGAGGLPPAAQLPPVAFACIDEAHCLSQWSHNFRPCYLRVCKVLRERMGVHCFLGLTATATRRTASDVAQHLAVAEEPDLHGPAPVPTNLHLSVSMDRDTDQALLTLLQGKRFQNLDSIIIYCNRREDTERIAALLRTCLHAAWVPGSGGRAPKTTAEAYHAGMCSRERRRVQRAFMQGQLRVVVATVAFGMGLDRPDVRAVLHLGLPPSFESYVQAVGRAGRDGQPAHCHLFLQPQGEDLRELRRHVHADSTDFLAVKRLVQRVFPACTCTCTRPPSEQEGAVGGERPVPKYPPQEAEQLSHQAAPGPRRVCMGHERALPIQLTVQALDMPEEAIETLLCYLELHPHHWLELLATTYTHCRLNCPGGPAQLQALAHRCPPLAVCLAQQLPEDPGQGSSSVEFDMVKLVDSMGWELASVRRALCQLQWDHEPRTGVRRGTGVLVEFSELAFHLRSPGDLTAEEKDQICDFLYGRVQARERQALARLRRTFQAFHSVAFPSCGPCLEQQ

T3: FLAG-RECQ4(751-1208) (human) (UniProt O94761)
T3 sequence: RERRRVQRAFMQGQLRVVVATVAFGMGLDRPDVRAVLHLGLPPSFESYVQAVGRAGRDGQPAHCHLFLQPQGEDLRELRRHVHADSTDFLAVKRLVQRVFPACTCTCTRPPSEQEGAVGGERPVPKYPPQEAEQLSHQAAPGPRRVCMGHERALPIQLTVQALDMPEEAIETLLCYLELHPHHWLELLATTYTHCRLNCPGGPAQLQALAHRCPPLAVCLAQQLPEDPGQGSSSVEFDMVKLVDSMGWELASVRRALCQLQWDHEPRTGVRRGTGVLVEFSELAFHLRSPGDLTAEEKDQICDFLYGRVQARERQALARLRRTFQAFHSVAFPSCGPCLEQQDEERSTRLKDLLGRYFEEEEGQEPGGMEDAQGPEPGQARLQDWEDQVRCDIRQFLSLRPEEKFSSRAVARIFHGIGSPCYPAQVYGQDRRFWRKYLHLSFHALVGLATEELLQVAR

T4: endogenous RECQ4 (human (endogenous in HEK293)) (UniProt O94761)
T4 sequence: T1 sequence

T5: FLAG-tagged RECQ4 Q757X mutant (human) (UniProt O94761)
T5 sequence: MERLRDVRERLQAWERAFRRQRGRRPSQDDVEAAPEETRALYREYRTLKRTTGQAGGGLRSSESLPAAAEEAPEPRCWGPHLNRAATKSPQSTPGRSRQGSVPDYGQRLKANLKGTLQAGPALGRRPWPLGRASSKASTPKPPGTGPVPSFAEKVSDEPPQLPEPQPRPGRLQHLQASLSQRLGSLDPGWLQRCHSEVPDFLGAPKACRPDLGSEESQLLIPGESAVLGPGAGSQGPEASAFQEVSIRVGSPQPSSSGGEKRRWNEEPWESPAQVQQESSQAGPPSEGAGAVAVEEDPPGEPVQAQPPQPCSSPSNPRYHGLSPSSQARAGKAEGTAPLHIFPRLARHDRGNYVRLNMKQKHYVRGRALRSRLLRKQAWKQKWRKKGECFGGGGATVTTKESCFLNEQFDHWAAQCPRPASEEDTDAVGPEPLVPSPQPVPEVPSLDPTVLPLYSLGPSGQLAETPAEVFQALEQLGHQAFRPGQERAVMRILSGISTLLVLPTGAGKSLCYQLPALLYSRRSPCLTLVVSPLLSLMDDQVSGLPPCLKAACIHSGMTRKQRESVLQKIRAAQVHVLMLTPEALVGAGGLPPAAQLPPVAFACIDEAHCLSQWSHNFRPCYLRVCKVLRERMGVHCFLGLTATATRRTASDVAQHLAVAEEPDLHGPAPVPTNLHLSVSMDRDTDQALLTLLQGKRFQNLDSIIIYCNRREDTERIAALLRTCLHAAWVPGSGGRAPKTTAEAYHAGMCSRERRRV

B1: GINS2 (protein, UniProt Q9Y248 1-185)
chain: MDAAEVEFLAEKELVTIIPNFSLDKIYLIGGDLGPFNPGLPVEVPLWLAINLKQRQKCRLLPPEWMDVEKLEKMRDHERKEETFTPMPSPYYMELTKLLLNHASDNIPKADEIRTLVKDMWDTRIAKLRVSADSFVRQQEAHAKLDNLTLMEINTSGTFLTQALNHMYKLRTNLQPLESTQSQDF
B2: EMI1 (protein, UniProt Q9UKT4 1-447)
chain: MSRRPCSCALRPPRCSCSASPSAVTAAGRPRPSDSCKEESSTLSVKMKCDFNCNHVHSGLKLVKPDDIGRLVSYTPAYLEGSCKDCIKDYERLSCIGSPIVSPRIVQLETESKRLHNKENQHVQQTLNSTNEIEALETSRLYEDSGYSSFSLQSGLSEHEEGSLLEENFGDSLQSCLLQIQSPDQYPNKNLLPVLHFEKVVCSTLKKNAKRNPKVDREMLKEIIARGNFRLQNIIGRKMGLECVDILSELFRRGLRHVLATILAQLSDMDLINVSKVSTTWKKILEDDKGAFQLYSKAIQRVTENNNKFSPHASTREYVMFRTPLASVQKSAAQTSLKKDAQTKLSNQGDQKGSTYSRHNEFSEVAKTLKKNESLKACIRCNSPAKYDCYLQRATCKREGCGFDYCTKCLCNYHTTKDCSDGKLLKASCKIGPLPGTKKSKKNLRRL

Tests used:
[1] = target: T1, FLAG-tagged RECQ4 wild type (human); assay: co-IP; FLAG-RECQ4 proteins on anti-FLAG M2 agarose from cytoplasmic (CE) fractions of stable RECQ4 KD HEK293 cells; western blot (Fig. 2d left)
[2] = target: T2, FLAG-tagged RECQ4 D1093X mutant (human); assay: co-IP; FLAG-RECQ4 proteins on anti-FLAG M2 agarose from chromatin-bound (CB) fractions of stable RECQ4 KD HEK293 cells; western blot (Fig. 2d right, Fig. 7g)
[3] = target: T1, FLAG-tagged RECQ4 wild type (human); assay: as above
[4] = target: T1, FLAG-tagged RECQ4 wild type (human); assay: co-IP; FLAG-RECQ4 WT or Q757X on M2 agarose from whole-cell extracts of stable RECQ4 KD HEK293 cells at time points after release from nocodazole; western blot (Fig. 3e)
[5] = target: T3, FLAG-RECQ4(751-1208) (human); assay: co-IP; FLAG-RECQ4 proteins on M2 agarose from stable RECQ4 KD HEK293 cells, extract or fraction not named; cells with or without APC5 shRNA (Fig. 3g); WT, Q757X and 751-1208 (Fig. 7e); western blot
[6] = target: T4, endogenous RECQ4 (human (endogenous in HEK293)); assay: co-IP; endogenous RECQ4 immunopurified with rabbit anti-RECQ4 antibody on protein A agarose from whole-cell extracts of parental HEK293 cells at time points after release from nocodazole; western blot (Fig. 3b)
[7] = target: T5, FLAG-tagged RECQ4 Q757X mutant (human); assay: co-IP; FLAG-RECQ4 proteins on M2 agarose from stable RECQ4 KD HEK293 cells, extract or fraction not named; cells with or without APC5 shRNA (Fig. 3g); WT, Q757X and 751-1208 (Fig. 7e); western blot
[8] = target: T1, FLAG-tagged RECQ4 wild type (human); assay: as above
[9] = target: T5, FLAG-tagged RECQ4 Q757X mutant (human); assay: co-IP; FLAG-RECQ4 proteins on anti-FLAG M2 agarose from chromatin-bound (CB) fractions of stable RECQ4 KD HEK293 cells; western blot (Fig. 2d right, Fig. 7g)
[10] = target: T3, FLAG-RECQ4(751-1208) (human); assay: co-IP; FLAG-RECQ4 proteins on M2 agarose from stable RECQ4 KD HEK293 cells, extract or fraction not named; cells with or without APC5 shRNA (Fig. 3g); WT, Q757X and 751-1208 (Fig. 7e); western blot; remark: listed apart in the source

Molecule | binding [2] | binding [3] | binding [6] | further results
ATP citrate lyase (ACLY) (from UniProt P53396 1-1101) (enzyme) |  |  |  | binding [1]: binds
mitotic checkpoint protein BUB3 (from UniProt O43684 1-328) | binds | binds | binds | binding [4]: binds; binding [5]: binds
ubiquitin-activating enzyme E1 homolog A (UBA1) (from UniProt P22314 1-1058) |  |  |  | binding [1]: binds
APC11 (from UniProt Q9NYG5 1-84) |  |  | binds | 
p32 (from UniProt Q07021 74-282) |  |  |  | binding [7]: binds; binding [8]: binds
GINS4 (from UniProt Q9BRT9 1-223) | binds | binds |  | binding [9]: binds
B1 | binds | binds | binds | binding [9]: binds
B2 | binds | binds |  | binding [4]: binds; binding [10]: binds
